Source: US20240325461A1, “COMBINATION THERAPIES FOR THE TREATMENT OF DISEASES” (Research Development Foundation, priority 2023, published 2024)

System: ovariectomized female mice
Assay: 3-point bending test of femur, curative model
Type: in vivo, C57BL/6J mice
Conditions: postmortem, day 60
Excerpt: A curative mouse model for osteoporosis was used for experiments, as follows. 16-week old female C57Bl/6J mice were ovariectomized and left for 2 months to develop the symptoms of osteoporosis and postmenopausal weigh gain and glucose intolerance. Administration of the respective treatment was initiated following these 2 months after the ovariectomies, i.e, once the mice already developed the symptoms of the respective metabolic disease.
Synergistic improvements from the combination were observed.
Ovariectomy: 16 weeks old C57Bl/6J female mice, obtained through Janvier, were be anesthetised with Xylazin/Ketamin (injection of 120 μl of a mixture of 120 mg/kg ketamine and 16 mg/kg xylazine) and shaved below the ribs on the back side. Betadine was be applied to the area for appropriate disinfection. After a 1-2 cm incision through the skin and the muscle layer just below the ribs, the ovary was localized, the fallopian tube ligated with dissolving suture and the ovary removed. The muscle layer was sutured with dissolving suture, the wound closed with staples and disinfected. The same procedure was/will be performed on the other side. A dose of Tamgesic was/will be administered 4 hours after the surgery, and the staples were removed 7 days after the surgery under isoflurane anesthesia. […]

Structure (SMILES): NCCCC(O)(P(=O)(O)O)P(=O)(O)O [alendronate]
- Yield point, femur metaphysis: not observed to result in a statistically significant increase
- Yield point, femur midshaft: not observed to result in improvements
